Measurements reported in PubChem BioAssay AID504808 (Drosophila RNAi Screening Center, 2011)
The deposit covers about 21,000 reagents; this is a random part of those that have a named target and a result. In the full data, 18 (0.084%) got an active call. 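Raw counts without plate normalisation, one of two replicates; the ratio scores behind the calls were not deposited.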 Reagents against one gene are numbered here. A plus sign joins genes that one reagent is predicted to hit. The record does not give: the amount of reagent, the time to read-out.

- Purpose: 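Fly genes required to hold E2F transcription in check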 (primary screen)
- System: Drosophila S2 cells
- Reagents: long dsRNA against Drosophila genes
- Measurement: 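Dual luciferase plate measurements; E2F-specific signal taken as firefly over Renilla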
- Scale: E2F firefly: higher = more E2F reporter activity; Renilla normaliser: higher = more normaliser reporter signal
- Active means: 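a knock-down counted as active when the firefly/Renilla E2F signal rose above 50%, a threshold chosen arbitrarily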

| target gene | reagent | E2F firefly, rep 1 | Renilla normaliser, rep 1 | Call |
| --- | --- | --- | --- | --- |
| CG40485 | 1 | 1.19e5 | 6385 | inactive |
| Naxe | 1 | 1.19e5 | 4925 | inactive |
| Rpt4R | 1 | 1.20e5 | 7137 | inactive |
| shep | 1 | 94686 | 4373 | inactive |
| shep | 2 | 99160 | 4301 | inactive |
| shep | 3 | 74505 | 3734 | inactive |
| CG6707 | 1 | 1.08e5 | 6427 | inactive |
| CG42663 | 1 | 84860 | 3976 | inactive |
| CG42663 | 2 | 89936 | 4259 | inactive |
| CG30054 | 1 | 1.44e5 | 5304 | inactive |
| fs(1)N | 1 | 1.21e5 | 5909 | inactive |
| mRpS18A | 1 | 1.55e5 | 6953 | inactive |
| Pvf1 | 1 | 1.46e5 | 4891 | inactive |
| Cht8 | 1 | 86306 | 4148 | inactive |
| CG10527 | 1 | 64707 | 3036 | inactive |
| dl | 1 | 91588 | 3947 | inactive |
| dl | 2 | 1.10e5 | 4579 | inactive |
| CG3842 | 1 | 1.07e5 | 5141 | inactive |
| nAChRalpha5 | 1 | 1.35e5 | 5468 | inactive |
| nAChRalpha5 | 2 | 1.01e5 | 4360 | inactive |
| nAChRalpha5 | 3 | 1.07e5 | 4259 | inactive |
| Pvf2 | 1 | 54369 | 2597 | inactive |
| Pvf2 | 2 | 1.52e5 | 4931 | inactive |
| Cyp6w1 | 1 | 77482 | 3015 | inactive |
| CG8611 | 1 | 1.49e5 | 5926 | inactive |
| CG15394 | 1 | 1.64e5 | 5684 | inactive |
| CG10340 | 1 | 70312 | 3799 | inactive |
| park | 1 | 78023 | 3699 | inactive |
| CG15743 | 1 | 1.25e5 | 5942 | inactive |
| CG8319 | 1 | 1.67e5 | 6484 | inactive |
| CG8675 | 1 | 1.52e5 | 5382 | inactive |
| CG13423 | 1 | 1.37e5 | 4456 | inactive |
| Src42A | 1 | 1.14e5 | 4713 | inactive |
| CG11018 | 1 | 77762 | 3238 | inactive |
| Or46a | 1 | 1.50e5 | 4568 | inactive |
| Or46a | 2 | 1.77e5 | 5121 | inactive |
| CG5961 | 1 | 77239 | 3724 | inactive |
| Jhbp1 | 1 | 1.28e5 | 5550 | inactive |
| CG14230 | 1 | 1.59e5 | 5582 | inactive |
| CG6184 | 1 | 1.34e5 | 8120 | inactive |
| cic | 1 | 88938 | 4958 | inactive |
| cic | 2 | 95725 | 5815 | inactive |
| cic | 3 | 1.34e5 | 7709 | inactive |
| cic | 4 | 1.38e5 | 5858 | inactive |
| Jhbp6 | 1 | 1.47e5 | 7758 | inactive |
| CG2121 | 1 | 2433 | 210 | inactive |
| CG2121 | 2 | 1.41e5 | 4752 | inactive |
| wdn | 1 | 1530 | 880 | inactive |
| CG31815 | 1 | 1.37e5 | 5397 | inactive |
| Taf12L | 1 | 1.54e5 | 4737 | inactive |
| cmb | 1 | 1.33e5 | 7672 | inactive |
| CG32036 | 1 | 72954 | 4031 | inactive |
| CG15731 | 1 | 47133 | 3224 | inactive |
| CG17841 | 1 | 7943 | 756 | inactive |
| eIF4EHP | 1 | 89065 | 2384 | inactive |
| eIF4EHP | 2 | 77152 | 3315 | inactive |
| CG7579 | 1 | 1.53e5 | 6984 | inactive |
| hwt | 1 | 44116 | 3480 | inactive |
| 5-HT7 | 1 | 1948 | 1084 | inactive |
| CR33317 | 1 | 1.06e5 | 4605 | inactive |
| CG32856 | 1 | 97381 | 2665 | inactive |
| mAcon1 | 1 | 97406 | 4419 | inactive |
| MED15 | 1 | 71932 | 3502 | inactive |
| CG15021 | 1 | 89634 | 3513 | inactive |
| RhoGAP5A | 1 | 7477 | 724 | inactive |
| Ance-4 | 1 | 1.35e5 | 4515 | inactive |
| CG11655 | 1 | 2.05e5 | 9349 | inactive |
| pnr | 1 | 67726 | 3525 | inactive |
| Myo31DF | 1 | 79734 | 3171 | inactive |
| CG33306 | 1 | 80791 | 3052 | inactive |
| CG8738 | 1 | 1.57e5 | 4849 | inactive |
| CG33494 | 1 | 85556 | 2831 | inactive |
| CycA | 1 | 75871 | 4166 | inactive |
| CycA | 2 | 45954 | 136 | inactive |
| CG4229 | 1 | 76836 | 3061 | inactive |
| CG4294 | 1 | 73939 | 3943 | inactive |
| Prp5 | 1 | 1.51e5 | 5326 | inactive |
| CG10470 | 1 | 93248 | 4376 | inactive |
| CG6961 + CG18259 | 1 | 1.32e5 | 6494 | inactive |
| CG6961 + CG18259 | 2 | 1.56e5 | 5053 | inactive |
| CG9132 | 1 | 1.42e5 | 10015 | inactive |
| CG15336 | 1 | 1.22e5 | 5363 | inactive |
| CG42580 | 1 | 86994 | 2966 | inactive |
| nSyb | 1 | 67449 | 2980 | inactive |
| Gnpnat | 1 | 1847 | 952 | inactive |
| Ndc80 | 1 | 8640 | 740 | inactive |
| x16 | 1 | 1.33e5 | 4886 | inactive |
| x16 | 2 | 79741 | 3876 | inactive |
| Antp | 1 | 61368 | 3443 | inactive |
| CG17380 | 1 | 1.10e5 | 5500 | inactive |
| CG31642 | 1 | 87187 | 3725 | inactive |
| scro | 1 | 84046 | 2349 | inactive |
| scro | 2 | 87551 | 4544 | inactive |
| wek | 1 | 86235 | 3680 | inactive |
| wal | 1 | 3065 | 220 | inactive |
| Spindly | 1 | 1.61e5 | 5362 | inactive |
| CG15719 | 1 | 6479 | 365 | inactive |
| Acbp4 | 1 | 1.01e5 | 3561 | inactive |
| Acp29AB | 1 | 1.31e5 | 5562 | inactive |
| CG7366 | 1 | 55364 | 3821 | inactive |
| Daao1 | 1 | 1.53e5 | 5364 | inactive |
| nenya | 1 | 77517 | 2788 | inactive |
| CG11298 | 1 | 90937 | 3713 | inactive |
| CG17195 | 1 | 1.19e5 | 6227 | inactive |
| wgn | 1 | 1.19e5 | 5167 | inactive |
| CG14634 | 1 | 39272 | 3207 | inactive |
| ptc | 1 | 1.32e5 | 5932 | inactive |
| ptc | 2 | 1.55e5 | 5070 | inactive |

Limited to “E2F firefly, rep 1”, for 18 of the entries above:
CG6184: 1.34e5
cic #1: 88938
cic #2: 95725
cic #3: 1.34e5
cic #4: 1.38e5
Jhbp6: 1.47e5
CG2121 #1: 2433
CG2121 #2: 1.41e5
wdn: 1530
CG31815: 1.37e5
Taf12L: 1.54e5
cmb: 1.33e5
CG32036: 72954
CG15731: 47133
CG17841: 7943
eIF4EHP #1: 89065
eIF4EHP #2: 77152
CG7579: 1.53e5
